At least one structure is not confirmed: it was looked up by name or label, or the drawing left a doubt.
What was measured:
Assay type in all cases: cell-based
trimeric Gαi:βγ complex = test: BRET assay of Gαi1:Gγ2 conformational rearrangement in δOR-HEK293 cells; settings: together with SNC80
Excerpt: δOR-HEK293 cells grown in DMEM supplemented with 10% FBS were transiently transfected with the following constructs: For measurements of the interactions of G protein subunits among each other and with the receptor we transfected Gαi1 with the Renilla luciferase (Rluc) inserted at amino acid position 91 and the UV-shifted GFP variant GFP10 (substitutions: P64L, S147P, and S202P) fused to the C-terminus of […] or the UV-shifted variant GFP2 (substitution: F64L) fused to the C-terminus of the δOR. In overexpression studies, we coexpressed regulatory (RIIβ) or catalytic subunits (PKAc) of PKA. […] Total fluorescence and bioluminescence were evaluated for each well using a FlexStation2 (Molecular Devices) and Mithras LB 940 (Berthold Technologies), respectively. uvGFP fluorescence was excited at 400 nm and read at 515 nm. Fluorescence values were corrected by subtracting the auto-fluorescence of cells not expressing uvGFP. BRET between Rluc and GFP2 or GFP10 was measured after the addition of 5 μM Rluc substrate DeepBlueC (bisdeoxy-coelenterazine, PerkinElmer, Lifescience). BRET signals were derived from the emission detected with the energy acceptor filter (515±15 nm; GFP2/10) divided by the emission detected with the energy donor filter (410±40 nm; Rluc/Rluc3). […]

R:PDK1 complexes = test: cAMP agarose precipitation of R:PDK1 complexes from COS7 cells; settings: forskolin pre-treatment 15 minutes, 2AHA-cAMP-coupled agarose beads
[1] = system: Erk1/2 phosphorylation in δOR-HEK293 cells; test: MAPK-phosphorylation assay (Erk1/2) in δOR-HEK293 cells; settings: pre-treatment before SNC80
Procedure: δOR-HEK293 cells were grown in 12 or 24 well plate formats (DMEM supplemented with 10% FBS). Either 24 or 48 hours after splitting or co-transfection in overexpression studies [transfected with constructs encoding the regulatory (RIIβ) or catalytic subunits (PKAc) of PKA] confluent cells were treated with inhibitors (KT5720 for 60 minutes, pertussis toxin for 16 hours), chemical modulators (forskolin, 6-MBC-cAMP, Sp-5,6-DCI-cBIMPS, Sp-8-PIP-cAMPs, 2-Cl-8-MA-cAMP [all for 15 minutes] or Rp-cAMP for 60 minutes) and/or the δOR ligand SNC80 (for either 3, 6, 10 or 15 minutes). cAMP analogs purchased from Biolog (6-MBC-cAMP, #M012; Sp-5,6-DCI-cBIMPS, #D014; Sp-8-PIP-cAMPs, #P005, 2-Cl-8-MA-cAMP, #C080; Rp-cAMP, #A002S) (see Bobrovskaya et al., Cell. Signal. 19, 1141-1149 (2007); Nguyen et al., Cell. Signal. 16, 1141-1151 (2004); Maronde et al., J. Pineal Res. 27, 170-182 (1999); Ogreid et al., Eur. J. Biochem. 181, 19-31 (1989); Poppe et al., Nat. Methods 5, 277-278 (2008)).
Following treatments at 37° C. for 3, 6, 10 or 15 minutes the reactions were stopped by direct addition of Laemmli sample buffer. Equal amounts of protein (lysates normalized to loading control proteins) were subjected to polyacrylamide gel electrophoresis followed by immunoblotting (IB). […] Quantitative densitometry of immuno blot bands was performed using the program ImageQuant 5.2 (Molecular Dynamics).

C=C[C@@]1(C)CC(=O)[C@]2(O)[C@@]3(C)[C@@H](O)CCC(C)(C)[C@@H]3[C@H](O)[C@H](OC(C)=O)[C@@]2(C)O1 [forskolin]
Gαi1:Gγ2 conformational rearrangement resulting from receptor activation (trimeric Gαi:βγ complex): further potentiated | stoichiometry of R:PDK1 complexes (R:PDK1 complexes): no difference | SNC80-induced Erk1/2 phosphorylation (amplitude and duration) [1]: potentiated

— patent publication US20150005237A1, “PEPTIDIC INHIBITOR OF SIGNAL TRANSMISSION FROM G-ALPHA-S TO G-ALPHA-I-COUPLED RECEPTOR CASCADES” (UNIVERSITÄT INNSBRUCK, priority 2011, published 2015)
